Patent US20060222587A1, “Hybrid inorganic nanoparticles, methods of using and methods of making” (priority 2005, published 2006)

Assay: 19F spectra of neat nanoparticles versus 1000 mM NaF in aqueous solution
Details: equal volumes, 90° block pulse, center frequency approx. midway between resonant frequencies, 188.34 MHz

SMILES: [F-].[Na+] [NaF, sodium fluoride]
- Integrated peak intensities: 7.55 relative units
